Source: patent US20140200134A1, “Anthranilamide Compounds and their use as Pesticides” (BASF SE, priority 2011, published 2014)
Some of these results come from one statement about several compounds together.

Test system: Southern armyworm (Spodoptera eridania)
Experiment: Southern armyworm foliar spray test on lima bean plants
Assay type: in vivo
Details: at less than 300 ppm; sprayed lima bean plants, larvae; 4 days after treatment

SMILES | mortality in comparison with untreated controls
CNC(=O)c1cc(/C=N/OC)cc(C)c1NC(=O)c1ccc(C(F)(F)F)cc1-c1ncccc1Cl [Compound 1-1, 2-[[2-(3-chloro-2-pyridyl)-4-(trifluoromethyl)benzoyl]amino]-5-[(E)-methoxyiminomethyl]-N,3-dimethyl-benzamide] | over 75%
CNC(=O)c1cc(-n2cncn2)cc(C)c1NC(=O)c1ccc(C(F)(F)F)cc1-c1ncccc1Cl [Compound 1-2, 2-[[2-(3-chloro-2-pyridyl)-4-(trifluoromethyl)benzoyl]amino]N,3-dimethyl-5-(1,2,4-triazol-1-yl)benzamide] | over 75%
